The mice bore no tumour; each value counts animals alive of those treated. Survivors were counted at the toxicity check, usually on the fifth day, unless a day is given; later deaths do not show. Schedules are NCI's codes, taken here to give the interval after Q, in days (D) or hours (H), and the number of doses after X. Some entries were tested several times; the results are listed from low to high.
System: B6D2F1 mice, nontumored toxicity test, survival
Assay: NCI In Vivo Anticancer Drug Screen. Data for tumor model Nontumored Animals (Toxicity Test) in B6D2F1 (BDF1) mice
Settings: vehicle: saline

CCN(CC)CCNc1ccc(CO)c2sc3ccccc3c(=O)c12
survivor count (dose: 4.0 mg/kg/injection, schedule: Q01DX009 (ip)): 8 of 8
survivor count (dose: 4.0 mg/kg/injection, schedule: Q03HX016 (ip)): 8 of 8
survivor count (dose: 4.0 mg/kg/injection, schedule: Q03HX024 (ip)): 8 of 8
survivor count (dose: 8.0 mg/kg/injection, schedule: Q01DX009 (ip)): 8 of 8
survivor count (dose: 8.0 mg/kg/injection, schedule: Q03HX008 (ip)): 8 of 8
survivor count (dose: 8.0 mg/kg/injection, schedule: Q03HX016 (ip)): 8 of 8
survivor count (dose: 8.0 mg/kg/injection, schedule: Q03HX024 (ip)): 8 of 8
survivor count (dose: 16.0 mg/kg/injection, schedule: Q01DX009 (ip)): 8 of 8
survivor count (dose: 16.0 mg/kg/injection, schedule: Q01DX009 (sc)): 8 of 8
survivor count (dose: 16.0 mg/kg/injection, schedule: Q03HX008 (ip)): 7 of 7
survivor count (dose: 16.0 mg/kg/injection, schedule: Q03HX016 (ip)): 8 of 8
survivor count (dose: 16.0 mg/kg/injection, schedule: Q03HX024 (ip)): 8 of 8
survivor count (dose: 32.0 mg/kg/injection, schedule: Q01DX001 (ip)): 8 of 8
survivor count (dose: 32.0 mg/kg/injection, schedule: Q01DX009 (ip)): 8 of 8
survivor count (dose: 32.0 mg/kg/injection, schedule: Q01DX009 (oral)): 8 of 8
survivor count (dose: 32.0 mg/kg/injection, schedule: Q01DX009 (sc)): 8 of 8
survivor count (dose: 32.0 mg/kg/injection, schedule: Q03HX008 (ip)): 8 of 8
survivor count (dose: 32.0 mg/kg/injection, schedule: Q03HX016 (ip)): 8 of 8
survivor count (dose: 32.0 mg/kg/injection, schedule: Q03HX024 (ip)): 7 of 8
survivor count (dose: 32.0 mg/kg/injection, schedule: Q04DX003 (ip)): 8 of 8
survivor count (dose: 32.0 mg/kg/injection, schedule: Q08DX002 (ip)): 8 of 8
survivor count (dose: 64.0 mg/kg/injection, schedule: Q01DX001 (ip)): 8 of 8
survivor count (dose: 64.0 mg/kg/injection, schedule: Q01DX001 (sc)): 8 of 8
survivor count (dose: 64.0 mg/kg/injection, schedule: Q01DX009 (ip)): 8 of 8
survivor count (dose: 64.0 mg/kg/injection, schedule: Q01DX009 (oral)): 8 of 8
survivor count (dose: 64.0 mg/kg/injection, schedule: Q01DX009 (sc)): 8 of 8
survivor count (dose: 64.0 mg/kg/injection, schedule: Q03HX008 (ip)): 8 of 8
survivor count (dose: 64.0 mg/kg/injection, schedule: Q03HX016 (ip)): 7 of 8
survivor count (dose: 64.0 mg/kg/injection, schedule: Q03HX024 (ip)): 8 of 8
survivor count (dose: 64.0 mg/kg/injection, schedule: Q04DX003 (ip)): 8 of 8
survivor count (dose: 64.0 mg/kg/injection, schedule: Q08DX002 (ip)): 8 of 8
survivor count (dose: 128.0 mg/kg/injection, schedule: Q01DX001 (ip)): 8 of 8
survivor count (dose: 128.0 mg/kg/injection, schedule: Q01DX001 (sc)): 8 of 8
survivor count (dose: 128.0 mg/kg/injection, schedule: Q01DX009 (ip)): 8 of 8
survivor count (dose: 128.0 mg/kg/injection, schedule: Q01DX009 (oral)): 8 of 8
survivor count (dose: 128.0 mg/kg/injection, schedule: Q01DX009 (sc)): 8 of 8
survivor count (dose: 128.0 mg/kg/injection, schedule: Q03HX008 (ip)): 0 of 8
survivor count (dose: 128.0 mg/kg/injection, schedule: Q03HX016 (ip)): 1 of 8
survivor count (dose: 128.0 mg/kg/injection, schedule: Q04DX003 (ip)): 8 of 8
survivor count (dose: 128.0 mg/kg/injection, schedule: Q08DX002 (ip)): 8 of 8
survivor count (dose: 256.0 mg/kg/injection, schedule: Q01DX001 (ip)): 7 of 8
survivor count (dose: 256.0 mg/kg/injection, schedule: Q01DX001 (oral)): 8 of 8 and 9 of 9
survivor count (dose: 256.0 mg/kg/injection, schedule: Q01DX001 (sc)): 2 of 8
survivor count (dose: 256.0 mg/kg/injection, schedule: Q01DX009 (oral)): 7 of 8 and 8 of 8
survivor count (dose: 256.0 mg/kg/injection, schedule: Q01DX009 (sc)): 5 of 8
survivor count (dose: 256.0 mg/kg/injection, schedule: Q04DX003 (ip)): 5 of 8
survivor count (dose: 256.0 mg/kg/injection, schedule: Q08DX002 (ip)): 6 of 8
survivor count (dose: 512.0 mg/kg/injection, schedule: Q01DX001 (ip)): 0 of 8
survivor count (dose: 512.0 mg/kg/injection, schedule: Q01DX001 (oral)): 7 of 8 and 10 of 10
survivor count (dose: 512.0 mg/kg/injection, schedule: Q01DX001 (sc)): 0 of 8
survivor count (dose: 512.0 mg/kg/injection, schedule: Q01DX009 (oral)): 3 of 8 and 5 of 8
survivor count (dose: 512.0 mg/kg/injection, schedule: Q04DX003 (ip)): 1 of 8
survivor count (dose: 512.0 mg/kg/injection, schedule: Q08DX002 (ip)): 1 of 8
survivor count (dose: 1024.0 mg/kg/injection, schedule: Q01DX001 (oral)): 5 of 8 and 7 of 8
survivor count (dose: 1024.0 mg/kg/injection, schedule: Q01DX001 (sc)): 0 of 8
survivor count (dose: 2048.0 mg/kg/injection, schedule: Q01DX001 (oral)): 0 of 8 and 1 of 8
